No constants are given. Whether binding was seen depends on the method and setting. Binding seen in cells or lysates may run through a third protein. Some binding calls cover weakened binding; strength is not graded here. Where a sequence is shown, tags or fusion partners need not be part of it.
Experiments:
[1] = target: T1, FLAG-tagged K40M NIMA (full length, kinase-negative) expressed in HeLa tTA-1 cells (Aspergillus nidulans) (UniProt P11837); experiment: co-immunoprecipitation
T1 sequence (looked up): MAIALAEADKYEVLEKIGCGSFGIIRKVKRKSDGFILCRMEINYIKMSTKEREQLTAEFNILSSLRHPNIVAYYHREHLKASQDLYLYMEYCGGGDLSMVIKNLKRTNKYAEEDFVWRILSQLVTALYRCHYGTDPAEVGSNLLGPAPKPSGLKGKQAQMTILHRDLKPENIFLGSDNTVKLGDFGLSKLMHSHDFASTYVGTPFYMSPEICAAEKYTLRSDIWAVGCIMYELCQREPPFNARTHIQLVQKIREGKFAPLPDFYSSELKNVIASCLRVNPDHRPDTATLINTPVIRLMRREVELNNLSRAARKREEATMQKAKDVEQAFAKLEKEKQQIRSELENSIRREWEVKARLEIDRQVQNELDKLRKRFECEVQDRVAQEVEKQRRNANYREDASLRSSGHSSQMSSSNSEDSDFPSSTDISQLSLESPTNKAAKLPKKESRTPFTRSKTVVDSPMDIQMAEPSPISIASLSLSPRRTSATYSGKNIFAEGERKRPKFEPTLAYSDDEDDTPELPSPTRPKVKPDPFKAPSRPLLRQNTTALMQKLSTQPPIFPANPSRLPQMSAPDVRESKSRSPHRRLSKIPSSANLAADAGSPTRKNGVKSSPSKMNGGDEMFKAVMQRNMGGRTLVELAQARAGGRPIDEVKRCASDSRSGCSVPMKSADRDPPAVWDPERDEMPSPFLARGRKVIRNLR

[2] = target: T1, FLAG-tagged K40M NIMA (full length, kinase-negative) expressed in HeLa tTA-1 cells (Aspergillus nidulans); experiment: co-immunoprecipitation, figure description in the example
[3] = target: T1, FLAG-tagged K40M NIMA (full length, kinase-negative) expressed in HeLa tTA-1 cells (Aspergillus nidulans); experiment: co-immunoprecipitation from HeLa tTA-1 cells (12CA5 and M2 mAbs), immunoblot

Measured: binding

HA-tagged Pin1 expressed in HeLa tTA-1 cells (from UniProt Q13526 1-163) (enzyme)
binds: all assays above

Source: US20040101896A1
